About 17,000 (5.5%) of roughly 310,000 compounds were called active. The shares of active, inactive and inconclusive entries below differ from those in the screen. Calls follow the shape of the dose curve; as a rule, active = well fitted inhibition curve with a large enough effect; inconclusive = small, poorly fitted or top-dose-only effect, or effect the other way; inactive = no such curve, though single readings can be large or run the other way. A potency beside an inconclusive call is a rough fit, not a confirmed value.
Each compound was assayed against Nuclear receptor ROR-gamma (Mus musculus) (UniProt P51450) (assay: qHTS for inhibitors of ROR gamma transcriptional activity). Details: Drosophila S2 Gal4-RORgamma UAS-luciferase reporter, 20 h; activity change, negative = inhibition: at 53.6 µM (top of the series).
In short: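 A Gal4/UAS one-hybrid system in insect cells: metallothionein-promoter Gal4–ROR gamma fusion plus Photinus luciferase reporter. Copper sulfate 700 uM final, 20 hr ambient incubation, luminescent detection after 10 min with reagent.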
% is scaled to controls: 0 for no effect and ±100 for the full control effect; potency is read from the fitted curve at half-maximal effect.
Also: nearly all actives have a fitted effect of over 60% in size.

Sequences of proteins named here, by UniProt entry; tags and fusion partners are left off. A change or cut given only in a name is not applied to a line headed by its entry.
UniProt P51450: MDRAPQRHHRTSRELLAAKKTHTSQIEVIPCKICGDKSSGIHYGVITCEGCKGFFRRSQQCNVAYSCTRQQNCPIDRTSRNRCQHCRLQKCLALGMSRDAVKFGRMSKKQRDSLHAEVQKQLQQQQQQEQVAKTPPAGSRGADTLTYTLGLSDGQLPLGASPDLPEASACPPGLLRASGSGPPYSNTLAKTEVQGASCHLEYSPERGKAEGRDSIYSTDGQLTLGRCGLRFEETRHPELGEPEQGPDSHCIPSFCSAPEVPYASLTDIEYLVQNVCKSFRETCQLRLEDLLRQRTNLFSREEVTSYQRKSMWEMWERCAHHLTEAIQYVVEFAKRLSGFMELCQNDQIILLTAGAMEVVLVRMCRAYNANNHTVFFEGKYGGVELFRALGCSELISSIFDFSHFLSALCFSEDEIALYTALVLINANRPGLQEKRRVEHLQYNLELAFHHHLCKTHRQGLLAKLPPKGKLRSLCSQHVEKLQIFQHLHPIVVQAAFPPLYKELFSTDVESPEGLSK

Row | Structure (SMILES) | Potency | activity change, negative = inhibition
1 | Cc1cc(NC(=O)c2c(Cl)cccc2Cl)no1 | inactive | 
2 | CCC1=NN(C(=O)Cc2ccc([N+](=O)[O-])cc2)C(O)(C(C)(C)C)C1 (centres undefined) | active: 8.91 µM | 
3 | CCc1nnc(NC(=O)c2ccc(S(=O)(=O)N3CCCc4ccccc43)cc2)o1 | active: 0.355 µM | 
4 | N#CSCC(=O)c1cccc2ccccc12 | active: 11.2 µM | 
5 | CCc1c(C)sc(NC(=O)c2cc(C(C)C)on2)c1C#N | inconclusive: 35.5 µM [inhibitor, single point] | 
6 | C=CCNC(=S)/N=c1/ccccn1CCC | active: 5.01 µM | 
7 | O=C(/C=C/c1ccccc1)c1ccc(O[C@H]2OC(CO)C(O)C(O)C2O)cc1O (some centres undefined) | inconclusive: 5.62 µM [inhibitor, partial curve, poor fit] | 
8 | COc1cccc(-c2n[nH]c(=S)n2Cc2ccco2)c1 | active: 15.8 µM | 
9 | COC(=O)[C@@]1(Cc2ccc(OC)cc2)[C@H]2c3cc(C(=O)N4CCCC4)n(Cc4c(CO)[nH]cc(C)c4=O)c3C[C@H]2CN1C(=O)c1ccccc1 | inactive | 
10 | CCOc1ccc2nc(NC(=O)Cc3cccs3)sc2c1 | inconclusive: 4.47 µM [activator, partial curve] | 
11 | CCCCn1c(O)c(/C=C2\C=NN=C2c2ccccc2)sc1=S | inconclusive: 35.5 µM [inhibitor, single point] | 
12 | Cn1c(=O)c2c(nc(Oc3ccccc3)n2C)n(C)c1=O | inactive | 
13 | O=C(NC1CCN(C(=S)NCCc2ccccc2)CC1)C1CC1 | active: 10 µM | 
14 | Cc1cc(S(=O)(=O)NCc2ccccc2)ccc1OCC(=O)NCc1ccncc1 | inconclusive: 0.355 µM [activator, full curve, poor fit] | 
15 | CCOC(=O)CSC1=C(C#N)C(c2ccc(F)cc2)C(C(C)=O)=C(C)N1 (centres undefined) | inconclusive: 35.5 µM [inhibitor, single point] | 
16 | C/C(=N/NC(=O)CN1CCN(S(=O)(=O)c2ccc(C)cc2)CC1)c1ccco1 | inactive | 
17 | CCNC(=S)N(CCCN(C)C)Cc1cc2cc3c(cc2[nH]c1=O)OCCO3 | inactive | 
18 | COc1nc(NCc2ccco2)nc(NC2CCCCC2)n1 | inconclusive: 20 µM [activator, partial curve, poor fit] | 
19 | C[C@@H](NC(=O)c1nc[nH]c1C(=O)NCC(=O)OCc1ccccc1)c1ccccc1 | active: 8.91 µM | 
20 | O=C(NC1CCCCC1)C1Cc2ccccc2CN1S(=O)(=O)c1ccc(F)cc1 (centres undefined) | inconclusive: 35.5 µM [inhibitor, single point] | 
21 | O=C1/C(=C\c2cccs2)Sc2ccc3ccccc3c21 | inconclusive: 11.2 µM [inhibitor, single point] | 
22 | CCOC(=O)COc1ccc(/C=C/[N+](=O)[O-])c(OCC(=O)OCC)c1 | inconclusive: 31.6 µM [inhibitor, single point] | 
23 | O=c1c2ccccc2nc(-c2cccs2)n1-c1cccc2ccccc12 | inconclusive: 12.6 µM [activator, partial curve] | 
24 | CCN(CC)S(=O)(=O)c1ccc(O)c(NS(=O)(=O)c2ccccc2F)c1 | active: 10 µM | 
25 | Cc1coc2c(C)c3oc(=O)c(CCC(=O)N[C@@H](C)C(=O)N[C@@H](Cc4ccccc4)C(=O)O)c(C)c3cc12 | inactive | 

Of the compounds above, these contain a thiophene ring, fused or not:
Row | Structure (SMILES) | Potency | activity change, negative = inhibition
5 | CCc1c(C)sc(NC(=O)c2cc(C(C)C)on2)c1C#N | inconclusive: 35.5 µM [inhibitor, single point] | 
10 | CCOc1ccc2nc(NC(=O)Cc3cccs3)sc2c1 | inconclusive: 4.47 µM [activator, partial curve] | 
21 | O=C1/C(=C\c2cccs2)Sc2ccc3ccccc3c21 | inconclusive: 11.2 µM [inhibitor, single point] | 
23 | O=c1c2ccccc2nc(-c2cccs2)n1-c1cccc2ccccc12 | inconclusive: 12.6 µM [activator, partial curve] | 

(cont.)

Row | Structure (SMILES) | Potency | activity change, negative = inhibition
26 | COCCn1c(SCc2cccc(F)c2)nc2cc(C(=O)OC)ccc2c1=O | inactive | 
27 | CC1(C)CC(=O)C(CC(=O)Nc2ccc(S(N)(=O)=O)cc2)=C(O)C1 | inactive | 
28 | CN1CCC2(CC1)N=C(c1ccc(F)cc1)C(=S)N2C(=O)c1ccc(C(C)(C)C)cc1 | active: 12.6 µM | 
29 | CC(=O)Nc1cc2ccccc2oc1=O | inactive | 
30 | COc1cc2oc(=O)cc(-c3cccc(-c4ccc(C(C)=O)cc4)c3)c2c(OC)c1OC | inactive | 
31 | COc1cc(NC(=O)C2CC(c3c(F)cccc3Cl)=NO2)cc(OC)c1OC (centres undefined) | inconclusive: 7.08 µM [activator, partial curve] | 
32 | CCOc1ccc(NC(=S)NC(C)c2cccs2)cc1 (centres undefined) | active: 3.16 µM | 
33 | CCCn1c(=S)[nH]c2cc(C(=O)N3CCN(c4ccccc4OC)CC3)ccc2c1=O | inconclusive: 5.62 µM [inhibitor, single point] | 
34 | Cc1cccc(/C=C/c2nc3ccccc3c(=O)n2Cc2ccccc2)c1 | inactive | 
35 | COc1cc(NC(=O)c2nn(C)c3c2CS(=O)(=O)c2ccccc2-3)cc(OC)c1 | inactive | 
36 | CC(=O)Nc1c(O)nc(SC/C=C/CSc2nc(O)c(NC(C)=O)c(=O)[nH]2)[nH]c1=O | inconclusive: 3.16 µM [inhibitor, partial curve, poor fit] | 
37 | COc1ccc(CNC(=O)C(C)N(Cc2ccccc2OC)C(=O)c2snc(C(N)=O)c2N)cc1 (centres undefined) | active: 10 µM | 
38 | Cc1ccc(C)c(OC(C)C(=O)Nc2ccc(S(=O)(=O)Nc3nccs3)cc2)c1 (centres undefined) | inconclusive: 6.31 µM [activator, partial curve] | 
39 | CCCN1CCN(CCCNC(=O)c2cc3c(=O)[nH]c4ccc(C)cc4c3s2)CC1 | inconclusive: 10 µM [inhibitor, partial curve] | 
40 | COc1nc(Nc2nc3ccccc3c(=O)[nH]2)nc2ccc(C)cc12 | inconclusive: 31.6 µM [inhibitor, partial curve, poor fit] | 
41 | CCCc1sc(N/N=C/c2ccccn2)nc1-c1ccc(F)cc1 | active: 0.282 µM | 
42 | CCOC(=O)c1[nH]nc(-c2cc(CC)c(O)cc2O)c1-c1cscn1 | inconclusive: 31.6 µM [inhibitor, single point] | 
43 | COc1ccc(OC)c(N/C(=N/C(=S)Nc2ccccc2)Nc2nc(C)cc(C)n2)c1 | inconclusive: 28.2 µM [inhibitor, single point] | 
44 | O=C1CC(N2CCC(O)CC2)C(=O)N1c1ccc(Br)cc1 (centres undefined) | inactive | 
45 | COc1ccccc1C(=O)Nc1cc2cc(Br)ccc2oc1=O | inconclusive: 0.891 µM [activator, full curve, poor fit] | 
46 | N#CCCN(NC1=NS(=O)(=O)c2ccccc21)C(=O)c1ccccc1Br | inactive | 
47 | CCCN1CCC(=O)N(C(CSc2ccc(OC)cc2)Cc2ccccc2)CC1 (centres undefined) | inconclusive: 35.5 µM [activator, single point] | 
48 | Cc1onc(-c2ccccc2Cl)c1C(=O)NC(=S)Nc1ccccc1F | active: 5.01 µM | 
49 | O=c1c2ccccc2nc2c3ccccc3c(Cl)nn12 | inconclusive: 6.31 µM [activator, single point] | 
50 | FC(F)(F)c1cccc(NC(=S)NC2CCCC2)c1 | active: 5.01 µM | 

Row | Structure (SMILES) | Potency | activity change, negative = inhibition
51 | C=CCc1c(C)nc(-c2ccccc2)nc1Nc1ccccc1O | inconclusive: 15.8 µM [activator, partial curve] | 
52 | COC(=O)c1c(/N=C/N(C)C)sc2c1CCN(c1ncc(C(F)(F)F)cc1Cl)C2 | inconclusive: 25.1 µM [activator, single point] | 
53 | COc1cc2cc(CN(CCCO)S(=O)(=O)c3ccccc3)c(=O)[nH]c2cc1OC |  | inactive: -16.6% [at 10 µM]
54 | Cc1c(C(=O)N2CCCCCC2)c(S(=O)(=O)Nc2ccccc2F)c(C)n1C | inconclusive: 0.1 µM [inhibitor, full curve, poor fit] | 
55 | COc1ccc(-c2ncncc2-c2ccc(Cl)cc2)c(O)c1 | inconclusive: 17.8 µM [inhibitor, single point] | 
56 | COCCOC(=O)c1[nH]c2c(c1C)C(=O)CC(c1ccc(OC)c(OC)c1)C2 (centres undefined) | inconclusive: 31.6 µM [activator, single point] | 
57 | Cc1nc2ccc(N=NC3=C(O)CC(C)(C)CC3=O)cc2s1 | inactive | 
58 | CNC(=O)c1oc(-c2ccccc2)nc1C | inactive | 
59 | COc1ccc(-n2cc(CNC3CCOCC3)c(-c3cccc(F)c3)n2)cc1 | inconclusive: 15.8 µM [inhibitor, single point] | 
60 | CCOC(=O)C1CCN(C(=O)C2CCCN2S(=O)(=O)c2ccc(Cl)cc2)CC1 (centres undefined) | inactive | 
61 | CC1CN(S(=O)(=O)c2ccc(C(=O)Nc3ccc(S(=O)(=O)Nc4ncccn4)cc3)cc2)CC(C)O1 (centres undefined) | inactive | 
62 | O=[N+]([O-])c1ccccc1S(=O)(=O)NCC1CCC(CNCC2CCc3ccccc3C2)CC1 (centres undefined) | inconclusive: 12.6 µM [inhibitor, single point] | 
63 | COc1ccccc1CCNC(=O)c1c(C)nn(CC(C)C)c1Cl | inconclusive: 15.8 µM [activator, partial curve] | 
64 | O=[N+]([O-])c1ccc(NC(=S)N2CCN(c3ccccn3)CC2)cc1 | inconclusive: 17.8 µM [activator, partial curve] | 
65 | CC(/C=C1\SC(=O)N(CC(=O)Nc2ccc(O)cc2)C1=O)=C\c1ccccc1 | inactive | 
66 | N#C/C(=C\c1ccccc1Cl)C(=O)Nc1ccccn1 | inactive | 
67 | O=C(/C=C/c1ccc2c(c1)OCO2)NC1CCCC1 | inconclusive: 14.1 µM [activator, single point] | 
68 | COc1ccc(-c2nnc(-c3ccc(C)cc3)o2)cc1 | inconclusive: 8.91 µM [inhibitor, partial curve, poor fit] | 
69 | O=C(N/N=C/c1ccccc1C(=O)O)c1ccccc1Br | inactive | 
70 | COC(=O)c1sc(N/N=C/c2ccc(C(C)C)cc2)nc1C | inconclusive: 20 µM [inhibitor, single point] | 
71 | O=C(O)C1C2CCC(O2)C1C(=O)NCc1ccccc1Br (centres undefined) | inconclusive: 4.47 µM [inhibitor, single point] | 
72 | O=C(COc1cccc2cccnc12)N1CCc2ccccc21 | inactive | 
73 | O=c1[nH]c2ccc(S(=O)(=O)N3CCCCC3)cc2[nH]c1=O | inconclusive: 6.31 µM [inhibitor, single point] | 
74 | Cc1cccc(Nc2nc(-c3sc(C)nc3C)cs2)c1 | inconclusive: 25.1 µM [activator, partial curve] | 

Source: PubChem BioAssay AID2551 (National Center for Advancing Translational Sciences (NCATS), 2010)
